Reference: the supplement of paper PMC10849652
This is one part of the list. Residues, ends and D or L forms follow the SMILES beside them. *: point of attachment. Cbz = O=C(OCc1ccccc1)*

Chains of the proteins cited; added tags and fusions are not shown. Lines headed by an entry give the natural chain unless they say otherwise; changes in a name come on top.
UniProt Q499Z4: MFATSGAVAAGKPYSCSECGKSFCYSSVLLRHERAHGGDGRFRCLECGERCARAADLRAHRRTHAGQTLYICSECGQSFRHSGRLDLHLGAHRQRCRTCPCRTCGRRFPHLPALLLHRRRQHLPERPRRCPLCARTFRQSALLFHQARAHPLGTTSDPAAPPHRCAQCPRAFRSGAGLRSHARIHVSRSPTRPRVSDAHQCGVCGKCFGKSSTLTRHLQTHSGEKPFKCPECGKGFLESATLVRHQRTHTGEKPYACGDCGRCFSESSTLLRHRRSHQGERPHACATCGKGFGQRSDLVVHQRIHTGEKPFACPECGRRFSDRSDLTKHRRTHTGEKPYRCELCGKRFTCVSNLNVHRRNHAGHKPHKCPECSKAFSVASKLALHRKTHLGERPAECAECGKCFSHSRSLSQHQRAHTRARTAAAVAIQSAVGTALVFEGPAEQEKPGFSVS
UniProt Q5VV52: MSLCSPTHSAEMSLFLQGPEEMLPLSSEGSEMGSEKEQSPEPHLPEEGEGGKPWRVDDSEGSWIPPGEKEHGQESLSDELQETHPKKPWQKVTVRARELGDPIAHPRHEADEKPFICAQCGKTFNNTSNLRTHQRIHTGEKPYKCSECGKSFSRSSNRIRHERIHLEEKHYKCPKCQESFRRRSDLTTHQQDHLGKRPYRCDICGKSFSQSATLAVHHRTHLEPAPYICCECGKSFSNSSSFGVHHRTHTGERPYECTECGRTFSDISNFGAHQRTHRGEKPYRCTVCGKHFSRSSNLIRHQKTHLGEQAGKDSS
UniProt Q9Y5V0: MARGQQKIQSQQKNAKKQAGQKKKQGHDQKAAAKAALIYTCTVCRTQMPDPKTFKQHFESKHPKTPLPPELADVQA
UniProt Q8NDX6: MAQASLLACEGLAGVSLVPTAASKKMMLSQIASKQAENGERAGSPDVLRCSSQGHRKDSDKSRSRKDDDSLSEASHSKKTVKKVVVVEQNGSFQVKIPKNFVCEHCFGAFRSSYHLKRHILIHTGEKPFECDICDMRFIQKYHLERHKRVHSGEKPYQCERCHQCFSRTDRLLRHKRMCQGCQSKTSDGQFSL
UniProt Q9H5H4: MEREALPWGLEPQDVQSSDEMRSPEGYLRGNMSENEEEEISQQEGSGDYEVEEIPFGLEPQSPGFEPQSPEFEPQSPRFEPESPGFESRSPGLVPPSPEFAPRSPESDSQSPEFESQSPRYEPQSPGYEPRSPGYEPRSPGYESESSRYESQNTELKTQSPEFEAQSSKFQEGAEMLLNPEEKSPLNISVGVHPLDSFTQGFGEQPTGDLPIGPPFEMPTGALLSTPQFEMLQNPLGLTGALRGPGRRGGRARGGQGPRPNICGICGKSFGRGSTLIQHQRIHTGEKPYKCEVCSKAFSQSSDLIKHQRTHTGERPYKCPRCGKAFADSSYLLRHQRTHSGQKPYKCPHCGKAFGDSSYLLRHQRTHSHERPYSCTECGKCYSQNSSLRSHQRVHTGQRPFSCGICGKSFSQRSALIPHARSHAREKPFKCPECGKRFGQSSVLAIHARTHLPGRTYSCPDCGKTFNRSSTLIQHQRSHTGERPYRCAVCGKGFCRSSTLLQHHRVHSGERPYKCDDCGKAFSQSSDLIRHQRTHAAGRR
UniProt Q16587: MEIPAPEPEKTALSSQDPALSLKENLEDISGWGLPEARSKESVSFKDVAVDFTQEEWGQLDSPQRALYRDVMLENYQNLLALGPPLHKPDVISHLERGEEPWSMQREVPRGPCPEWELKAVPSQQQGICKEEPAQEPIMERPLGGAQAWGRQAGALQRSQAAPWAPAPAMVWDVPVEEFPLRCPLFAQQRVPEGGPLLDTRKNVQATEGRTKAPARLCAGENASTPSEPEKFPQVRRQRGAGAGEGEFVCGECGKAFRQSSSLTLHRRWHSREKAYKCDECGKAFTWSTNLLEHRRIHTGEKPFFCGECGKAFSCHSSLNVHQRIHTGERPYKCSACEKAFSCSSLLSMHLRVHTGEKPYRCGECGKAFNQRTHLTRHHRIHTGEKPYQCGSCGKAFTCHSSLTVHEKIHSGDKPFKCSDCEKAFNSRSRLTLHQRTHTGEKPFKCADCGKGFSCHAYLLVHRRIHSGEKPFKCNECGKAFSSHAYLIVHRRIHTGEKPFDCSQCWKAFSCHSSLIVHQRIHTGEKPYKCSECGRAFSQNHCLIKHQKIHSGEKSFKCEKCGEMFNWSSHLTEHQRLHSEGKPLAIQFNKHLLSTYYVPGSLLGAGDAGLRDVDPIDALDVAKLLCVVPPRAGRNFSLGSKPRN

How the values were obtained:
Experiment in all cases: log2 fold change, soluble protein after heating vs DMSO (PISA); higher = thermal stabilisation; K562 cells, 10 uM, 30 min; active = over 0.2 and 3.5 SD of the protein, either way, in both replicates (recomputed)
[1] = target: ZNF672 (UniProt Q499Z4)
Summary of the method: (§1)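 K562 cells at 2×10^6 cells/mL were exposed to 10 μM compound for 30 min, then aliquots were heated for 3 min across 48°C-58°C, pooled, and extracted in PBS containing 0.5% NP-40 at 4°C. The supernatant after 21,000xg for 90 min was taken as soluble protein and measured by TMTpro 16plex LC-MS/MS with channel sums equalised. Thermal stability is reported relative to control samples, with values from duplicates. Fold changes are given on a log2 scale.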

[2] = target: ZNF691 (UniProt Q5VV52)
Summary of the method: as §1

[3] = target: ZNF706 (UniProt Q9Y5V0)
Summary of the method: as §1

[4] = target: ZNF740 (UniProt Q8NDX6)
Summary of the method: as §1

[5] = target: ZNF768 (UniProt Q9H5H4)
Summary of the method: as §1

[6] = target: ZNF74 isoform 5 (UniProt Q16587)
Summary of the method: as §1

Measured: log2 fold change

Cn1cc(-c2ccc3nnc(C(F)(F)c4ccc5ncccc5c4)n3n2)cn1
inactive: [1] -0.034 | [2] -0.138 | [3] 0.017 | [4] -0.019 | [5] -0.058

Cc1ccc2c(=O)c3ccccc3n(CCCN)c2c1C
inactive: [1] -0.154 | [2] 0.201 | [3] -0.035 | [5] -0.268

CC(C)C[C@@H](C=O)NC(=O)[C@H](CC(C)C)NC(=O)[C@H](CC(C)C)NC(=O)OCc1ccccc1 (Cbz-Leu-Leu-Leu-aldehyde)
inactive: [1] 0.051 | [2] 0.045 | [3] -0.016 | [4] -0.009 | [5] 0.272

CCCc1cc(C)[nH]c(=O)c1CNC(=O)c1cc(-c2ccnc(N3CCN(C)CC3)c2)cc2c1cnn2C(C)C
inactive: [1] 0.015 | [2] -0.006 | [3] -0.05 | [4] 0.054 | [5] 0.163

NC1(Cc2ccc(Cl)cc2)CCN(c2ncnc3[nH]ccc23)CC1
inactive: [1] 0.138 | [2] -0.014 | [3] 0.074 | [5] -0.096

CNC(=O)c1ccccc1Nc1nc(Nc2ccc(N3CCOCC3)cc2OC)ncc1Cl
inactive: [1] -0.12 | [2] -0.02 | [3] -0.019 | [6] -0.174 | [5] 0.003

Cc1nc(Nc2ncc(C(=O)Nc3c(C)cccc3Cl)s2)cc(N2CCN(CCO)CC2)n1 [dasatinib]
inactive: [1] -0.111 | [2] 0.004 | [3] 0.078 | [5] 0.086

Cc1ccc(C(=O)N(CCCN)[C@@H](c2nc3cc(Cl)ccc3c(=O)n2Cc2ccccc2)C(C)C)cc1 [ispinesib]
inactive: [1] -0.258 | [2] 0.08 | [3] 0.008 | [4] -0.083 | [5] -0.196

C[C@@H](N)c1ccc(C(=O)Nc2ccnc3[nH]ccc23)cc1
inactive: [1] -0.014 | [2] -0.006 | [3] -0.057 | [4] 0.326 | [5] 0.346

FC(F)(F)c1ccc(/C=C/c2nc(COc3ccc(CCCCn4ccnn4)cc3)co2)cc1 [mubritinib]
inactive: [1] -0.154 | [2] -0.031 | [3] 0.017 | [4] 0.001 | [5] -0.115

CC(C)c1cnn2c(NCc3ccccc3)cc(NCCCCCCN)nc12
inactive: [1] -0.166 | [2] 0.072 | [3] 0.073 | [6] 0.126 | [5] 0.15

C[C@H](Nc1ncnc2nc[nH]c12)c1cc2cccc(Cl)c2c(=O)n1-c1ccccc1 [duvelisib]
inactive: [1] -0.15 | [2] 0.055 | [3] -0.047 | [5] -0.077

CNc1nc(-c2ccc3c(N)n[nH]c3c2)cc(N2C[C@@H](C(=O)NC3CCCCC3)CC[C@H]2C)n1
inactive: [1] 0.202 | [2] -0.019 | [3] -0.121 | [5] 0.017

COc1cc(Nc2ncc3c(n2)-c2ccc(Cl)cc2C(c2c(F)cccc2OC)=NC3)ccc1C(=O)O [alisertib]
inactive: [1] -0.142 | [2] 0.025 | [3] 0.008 | [4] -0.171 | [5] -0.165

Cc1cc(SCc2sc(-c3ccc(C(F)(F)F)cc3)nc2C)ccc1OCC(=O)O
inactive: [1] 0.053 | [2] 0.03 | [3] -0.038 | [5] -0.002

NC1(c2ccc(-c3nc4ccn5c(=O)[nH]nc5c4cc3-c3ccccc3)cc2)CCC1
inactive: [1] -0.143 | [2] 0.098 | [3] 0.073 | [4] 0.167 | [5] 0.171

CCN(CC)Cc1ccc2cc(COC(=O)Nc3ccc(C(=O)NO)cc3)ccc2c1 [givinostat]
inactive: [1] 0.031 | [2] -0.092 | [3] -0.022 | [6] 0.01 | [5] 0.062

COc1cccc2cc(-c3nc([C@H]4CC[C@H](C(=O)O)CC4)n4ncnc(N)c34)[nH]c12
inactive: [1] 0.046 | [2] -0.024 | [3] 0.021 | [4] 0.15 | [5] -0.133

Cc1cc(Nc2cc(N3CCN(C)CC3)nc(Sc3ccc(NC(=O)C4CC4)cc3)n2)n[nH]1 [tozasertib]
inactive: [1] -0.042 | [2] 0.043 | [3] -0.02 | [5] 0.007

O=C(Nc1cccc(Nc2ncc(Br)c(NCCc3cnc[nH]3)n2)c1)N1CCCC1
inactive: [1] -0.018 | [2] -0.002 | [3] -0.031 | [5] 0.111

Cn1c2cc(S(C)=O)sc2c2cnn(Cc3cccc(N)c3)c(=O)c21 (stereo not given)
inactive: [1] 0.106 | [2] 0.007 | [3] -0.033 | [5] 0.203

Cc1ccc(NC(=O)c2cccc(N(C)C)c2)cc1NC(=O)c1ccc(O)cc1
inactive: [1] 0.112 | [2] 0.018 | [3] 0.067 | [4] 0.067 | [5] 0.021

CN1CC[C@H](c2c(O)cc(O)c3c(=O)cc(-c4ccccc4Cl)oc23)[C@H](O)C1 [alvocidib]
inactive: [1] 0.133 | [2] 0.06 | [3] 0.019 | [4] 0.3 | [5] 0.193

CC(C)(C)Cn1c(N)nc2ccc(-c3[nH]c(C(C)(C)C)nc3-c3ccc(F)cc3)nc21 [ralimetinib]
inactive: [1] 0.056 | [2] -0.091 | [3] 0.002 | [4] 0.026 | [5] 0.116

Molecules above containing a CF3 group (2):
FC(F)(F)c1ccc(/C=C/c2nc(COc3ccc(CCCCn4ccnn4)cc3)co2)cc1 [mubritinib]
inactive: [1] -0.154 | [2] -0.031 | [3] 0.017 | [4] 0.001 | [5] -0.115

Cc1cc(SCc2sc(-c3ccc(C(F)(F)F)cc3)nc2C)ccc1OCC(=O)O
inactive: [1] 0.053 | [2] 0.03 | [3] -0.038 | [5] -0.002

The list goes on:

CN1CCc2c(c3ccccc3n2Cc2ccc(C(=O)NO)cc2)C1 [Tubastatin A]
inactive: [1] -0.021 | [2] -0.025 | [3] 0.081 | [5] 0.162
